The target of experiment [1] is runt-related transcription factor 2 (Runx2), endogenous in mouse heart (mouse (endogenous in heart tissue)) (UniProt Q08775). The experiment is described as follows: co-IP; endogenous immunoprecipitation from mouse heart tissue lysate with Mib2 or Runx2 antibodies; protein A + G magnetic beads, 4°C overnight, Western blot. (Immunoblotting shows a protein as a band on a membrane.)

Sequences of proteins named here, by UniProt entry; tags and fusion partners are left off.
UniProt Q08775: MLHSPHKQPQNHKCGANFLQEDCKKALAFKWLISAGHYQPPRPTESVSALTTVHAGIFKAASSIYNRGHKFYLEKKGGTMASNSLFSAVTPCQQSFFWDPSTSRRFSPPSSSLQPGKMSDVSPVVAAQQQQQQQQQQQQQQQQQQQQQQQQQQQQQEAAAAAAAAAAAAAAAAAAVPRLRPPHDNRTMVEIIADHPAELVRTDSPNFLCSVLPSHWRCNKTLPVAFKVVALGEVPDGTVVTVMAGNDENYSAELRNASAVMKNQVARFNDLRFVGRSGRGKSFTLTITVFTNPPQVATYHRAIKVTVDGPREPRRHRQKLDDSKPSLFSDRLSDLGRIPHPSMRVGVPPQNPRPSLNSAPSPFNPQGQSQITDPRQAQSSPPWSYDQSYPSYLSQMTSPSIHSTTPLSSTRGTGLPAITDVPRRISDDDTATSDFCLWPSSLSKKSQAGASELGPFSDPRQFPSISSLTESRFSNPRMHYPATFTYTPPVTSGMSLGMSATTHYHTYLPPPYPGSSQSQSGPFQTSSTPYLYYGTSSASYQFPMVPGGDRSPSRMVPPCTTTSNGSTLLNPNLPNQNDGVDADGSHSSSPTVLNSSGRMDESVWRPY

Experiment [2] deals with HA-Runx2 (full-length Runx2, overexpression plasmid) (UniProt Q08775). The experiment is described as follows: co-IP; HEK293T cells transfected with Mib2 and Runx2 overexpression plasmids; lysate incubated with antibody and protein A + G magnetic beads, 4°C overnight, Western blot.

These are yes or no findings as the source states them, for the method shown. In cells and extracts the contact can be indirect. Some results given as binding are weak or reduced against the parent protein; the word gives no strength. For some assays here: Sequences can lack the tags named with a protein.

B1: mind bomb E3 ubiquitin protein ligase 2 (Mib2), endogenous in mouse heart (protein, UniProt Q8R516 1-973)
chain: MDLDPHAGVQVGMRVVRGMDWKWGQQDGGEGGVGTVVELGRHGSPSTPDRTVVVQWDQGTRTNYRAGYQGAHDLLLYDNAQIGIRHPNIICDCCKKHGLRGMRWKCRVCFDYDLCTQCYMHNKHDLTHAFERYETSHSRPVTLSPRQGLPRIPLRGIFQGAKVVRGPDWEWGSQDGGEGKTGRVVDIRGWDVETGRSVASVTWADGTTNVYRVGHKGKVDLRCVGEAAGGFYYKEHLPKLGKPAELQRRVSADGQPFQRGDKVKCLLDTDVLRDMQEGHGGWNPRMAEFIGQMGTVHRITDRGDVRVQFNHETRWTFHPGALTKHNSFWVGDVVRVIGDLDTVKRLQAGHGEWTDDMAPALGRVGKVVKVFGDGNLRVAVGGQRWTFSPSCLVAYRPEEDANLDVAERARENKSAASVSVAGSLSVALDKLRTQKSDPEHPGRLVVEAALGNVARALDLLRRHPEQASYHPALVVDTKNQGRTALQVAAYLGQVELVRLLLQARASMDLPDDEGNTVLHYTAMGNQPEATRVLLSAGCAVDARNGTRSTALHVAVQRGFLEVVKILCERGCDVNLPDAHADTPLHSAISAGAGASSIVEVLTEVPGIDVTATNSQGFTLLHHASLKGHVLAVRKILARARQLVDAKKEDGFTALHLAALNNHREVAQVLIREGRCDVNVRNRKLQSPLHLAVQQAHLGLVPLLVDAGCSVNTEDEEGDTALHVALQRHQLLPLVADRAGGDPGPLQLLSRLQASGLPGCTELTVGAAVACFLALEGADVSYANHRGRSPLDLATEGRVLKALQGCAQRFRERQAGGGGGVPPGPRHVLSTPNTVTNLHVSGTAGPEAAECLVCSELALLILFSPCQHRTVCEECARRMKKCIRCQVVISKKLRPDGSEVVNAIQVPGPPRQLVEELQSRYRQMEERITCPICIDSHIRLVFQCGHGACAPCGAALNACPICRQPIRDRIQIFV
For the molecule B1, the binding result in experiment [1] is recorded as “binds”.

B2: Flag-Mib2 (full-length Mib2, overexpression plasmid) (protein, UniProt Q8R516 1-973)
chain: MDLDPHAGVQVGMRVVRGMDWKWGQQDGGEGGVGTVVELGRHGSPSTPDRTVVVQWDQGTRTNYRAGYQGAHDLLLYDNAQIGIRHPNIICDCCKKHGLRGMRWKCRVCFDYDLCTQCYMHNKHDLTHAFERYETSHSRPVTLSPRQGLPRIPLRGIFQGAKVVRGPDWEWGSQDGGEGKTGRVVDIRGWDVETGRSVASVTWADGTTNVYRVGHKGKVDLRCVGEAAGGFYYKEHLPKLGKPAELQRRVSADGQPFQRGDKVKCLLDTDVLRDMQEGHGGWNPRMAEFIGQMGTVHRITDRGDVRVQFNHETRWTFHPGALTKHNSFWVGDVVRVIGDLDTVKRLQAGHGEWTDDMAPALGRVGKVVKVFGDGNLRVAVGGQRWTFSPSCLVAYRPEEDANLDVAERARENKSAASVSVAGSLSVALDKLRTQKSDPEHPGRLVVEAALGNVARALDLLRRHPEQASYHPALVVDTKNQGRTALQVAAYLGQVELVRLLLQARASMDLPDDEGNTVLHYTAMGNQPEATRVLLSAGCAVDARNGTRSTALHVAVQRGFLEVVKILCERGCDVNLPDAHADTPLHSAISAGAGASSIVEVLTEVPGIDVTATNSQGFTLLHHASLKGHVLAVRKILARARQLVDAKKEDGFTALHLAALNNHREVAQVLIREGRCDVNVRNRKLQSPLHLAVQQAHLGLVPLLVDAGCSVNTEDEEGDTALHVALQRHQLLPLVADRAGGDPGPLQLLSRLQASGLPGCTELTVGAAVACFLALEGADVSYANHRGRSPLDLATEGRVLKALQGCAQRFRERQAGGGGGVPPGPRHVLSTPNTVTNLHVSGTAGPEAAECLVCSELALLILFSPCQHRTVCEECARRMKKCIRCQVVISKKLRPDGSEVVNAIQVPGPPRQLVEELQSRYRQMEERITCPICIDSHIRLVFQCGHGACAPCGAALNACPICRQPIRDRIQIFV
On to B2, for which the binding entry in experiment [2] is “binds”.

Values taken from article PMC11955417.
